{"source": "PubChem BioAssay AID1053208 – Peter MacCallum Cancer Centre – 2014", "test": "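Genes whose silencing cuts survival of bone tumour cells only with doxorubicin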 (primary screen)", "cells": "mouse osteosarcoma cells, early-passage culture from an engineered mouse model of fibroblastic bone tumour", "reagents": "siRNA pool against mouse genes, 40 nM", "duration": "about 120 h (48 h before drug, then 72 h with drug)", "challenge": "doxorubicin 100 nM for 72 h, roughly 30-40% inhibitory dose", "read-out": "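Viability read as ATP luminescence after 72 h of 100 nM doxorubicin or none, duplicate wells averaged, scaled to non-targeting siRNA, then expressed as robust z-scores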", "direction": "viability z-score with doxorubicin: higher = more viable cells under doxorubicin; viability z-score without drug: higher = more viable cells with knock-down alone", "call rule": "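a pool counts as active when its viability z-score with doxorubicin is -2 or below and its z-score without drug lies between -2 and 2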", "note": "Shown is an unselected part of about 17,000 deposited reagents. 788 of all reagents (4.7%) were called active. 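Calls rest on z-score classes alone; an extra cut-off of viability at most 70% of control was not applied to them.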 A number with no mark means an inactive call. Not all columns of the deposit are shown."}
{"gene symbol": "Nuak1 (NUAK family, SNF1-like kinase, 1)", "combined z-score class": "no change with or without drug", "viability z-score with doxorubicin": -0.9, "viability z-score without drug": -0.51}
{"gene symbol": "Cth (cystathionine gamma lyase)", "combined z-score class": "no change with or without drug", "viability z-score with doxorubicin": 0.56, "viability z-score without drug": -0.17}
{"gene symbol": "Ifi27 (interferon, alpha-inducible protein 27)", "combined z-score class": "high cell count without drug only", "viability z-score with doxorubicin": 0.22, "viability z-score without drug": 2.02}
{"gene symbol": "Rfx2 (regulatory factor X, 2 (influences HLA class II expression))", "combined z-score class": "no change with or without drug", "viability z-score with doxorubicin": -0.45, "viability z-score without drug": -0.51}
{"gene symbol": "Cnppd1 (cyclin Pas1/PHO80 domain containing 1)", "combined z-score class": "no change with or without drug", "viability z-score with doxorubicin": -0.22, "viability z-score without drug": 1.85}
{"gene symbol": "Ppp2r3a (protein phosphatase 2, regulatory subunit B'', alpha)", "combined z-score class": "no change with or without drug", "viability z-score with doxorubicin": -0.22, "viability z-score without drug": 0}
{"gene symbol": "Trp53bp2 (transformation related protein 53 binding protein 2)", "combined z-score class": "no change with or without drug", "viability z-score with doxorubicin": -0.79, "viability z-score without drug": 1.52}
{"gene symbol": "Ap2m1 (adaptor-related protein complex 2, mu 1 subunit)", "combined z-score class": "no change with or without drug", "viability z-score with doxorubicin": 0.9, "viability z-score without drug": 0.51}
{"gene symbol": "Pla2g2a (phospholipase A2, group IIA (platelets, synovial fluid))", "combined z-score class": "no change with or without drug", "viability z-score with doxorubicin": 0.79, "viability z-score without drug": 0.17}

Entries above whose gene name begins with P or p (2):
{"gene symbol": "Ppp2r3a (protein phosphatase 2, regulatory subunit B'', alpha)", "combined z-score class": "no change with or without drug", "viability z-score with doxorubicin": -0.22, "viability z-score without drug": 0}
{"gene symbol": "Pla2g2a (phospholipase A2, group IIA (platelets, synovial fluid))", "combined z-score class": "no change with or without drug", "viability z-score with doxorubicin": 0.79, "viability z-score without drug": 0.17}

Next entries follow.
{"gene symbol": "Sox13 (SRY (sex determining region Y)-box 13)", "combined z-score class": "low cell count with doxorubicin only (active)", "viability z-score with doxorubicin": -2.25, "viability z-score without drug": -1.18}
{"gene symbol": "Stom (stomatin)", "combined z-score class": "no change with or without drug", "viability z-score with doxorubicin": 0, "viability z-score without drug": 0.17}
{"gene symbol": "Pcdh9 (protocadherin 9)", "combined z-score class": "no change with or without drug", "viability z-score with doxorubicin": 0.67, "viability z-score without drug": 1.52}
{"gene symbol": "Lrrc26 (leucine rich repeat containing 26)", "combined z-score class": "no change with or without drug", "viability z-score with doxorubicin": -0.56, "viability z-score without drug": 0.34}
{"gene symbol": "Chga (chromogranin A)", "combined z-score class": "no change with or without drug", "viability z-score with doxorubicin": -1.12, "viability z-score without drug": -0.84}
{"gene symbol": "Krcc1 (lysine-rich coiled-coil 1)", "combined z-score class": "no change with or without drug", "viability z-score with doxorubicin": 0.56, "viability z-score without drug": -0.51}
{"gene symbol": "Hmgcl (3-hydroxy-3-methylglutaryl-Coenzyme A lyase)", "combined z-score class": "no change with or without drug", "viability z-score with doxorubicin": 1.57, "viability z-score without drug": -0.17}
{"gene symbol": "Or4b13 (olfactory receptor family 4 subfamily B member 13)", "combined z-score class": "no change with or without drug", "viability z-score with doxorubicin": -1.12, "viability z-score without drug": -0.84}
{"gene symbol": "Cmtm6 (CKLF-like MARVEL transmembrane domain containing 6)", "combined z-score class": "no change with or without drug", "viability z-score with doxorubicin": 1.57, "viability z-score without drug": 0.34}
{"gene symbol": "Or52n2 (olfactory receptor family 52 subfamily N member 2)", "combined z-score class": "no change with or without drug", "viability z-score with doxorubicin": 0, "viability z-score without drug": -0.51}
{"gene symbol": "Map2k6 (mitogen-activated protein kinase kinase 6)", "combined z-score class": "no change with or without drug", "viability z-score with doxorubicin": 0.22, "viability z-score without drug": 0.84}
{"gene symbol": "Tmem101 (transmembrane protein 101)", "combined z-score class": "no change with or without drug", "viability z-score with doxorubicin": 0.79, "viability z-score without drug": 0.17}
{"gene symbol": "Lin28a (lin-28 homolog A)", "combined z-score class": "no change with or without drug", "viability z-score with doxorubicin": 0.9, "viability z-score without drug": 0.17}
{"gene symbol": "Actr3b (ARP3 actin-related protein 3B)", "combined z-score class": "no change with or without drug", "viability z-score with doxorubicin": -0.22, "viability z-score without drug": 0.51}
{"gene symbol": "Pik3r4 (phosphoinositide-3-kinase regulatory subunit 4)", "combined z-score class": "no change with or without drug", "viability z-score with doxorubicin": 0, "viability z-score without drug": 0.17}
{"gene symbol": "Il17rb (interleukin 17 receptor B)", "combined z-score class": "no change with or without drug", "viability z-score with doxorubicin": 0.22, "viability z-score without drug": -1.18}
{"gene symbol": "Nanos2 (nanos C2HC-type zinc finger 2)", "combined z-score class": "no change with or without drug", "viability z-score with doxorubicin": 0.22, "viability z-score without drug": 1.52}
{"gene symbol": "Slc9a9", "combined z-score class": "no change with or without drug", "viability z-score with doxorubicin": 0.9, "viability z-score without drug": 0}
{"gene symbol": "Zfp706 (zinc finger protein 706)", "combined z-score class": "no change with or without drug", "viability z-score with doxorubicin": 0.34, "viability z-score without drug": -0.17}
